Reference: PubChem BioAssay AID1259424 (University of Nebraska Medical Center, 2018)
In all, the deposit lists about 14,000 reagents; this is an unselected part. 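Higher correlation or smaller distance means closer resemblance to KSR1 loss; control wells, including KSR1 knockdowns, recur on many plates.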 Further read-outs or replicates are left out here. No sequences are given here. Not given: the time to read-out.

Purpose: 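Find knockdowns that reproduce the expression shifts seen after KSR1 loss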 (primary screen)
Cell system: human HCT116 colon cancer cells
Reagents: siRNA pool against human genes, 50 nM
Measured: 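Log2 levels of six mRNAs (branched-DNA multiplex), adjusted by two reference genes and the non-targeting median, then scored against the average KSR1 knockdown pattern as Pearson r and euclidean distance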
Scale: mean correlation with KSR1 profile: higher = expression change more like KSR1 knockdown

The first 2 records as a preview:
gene symbol | mean correlation with KSR1 profile
IL4R | 0.219
APOBEC3A | -0.443

Results, from the first entry:
gene symbol | mean correlation with KSR1 profile
IL4R | 0.219
APOBEC3A | -0.443
PPP1R2C | -0.576
HMGB3 | -0.509
GZMH | 0.183
RBM15B | 0.303
ARHGEF10L | -0.256
CORO1B | -0.801
EPOR | 0.0379
SNAPC3 | 0.769
TNFAIP1 | 0.232
SOWAHC | -0.0601
CFAP20 | 0.199
MTIF2 | -0.138
PLXNB2 | -0.279
XRCC3 | -0.682
KAZALD1 | 0.348
ABHD17B | -0.851
PER3 | 0.399
GINS2 | -0.452
VARS2 | 0.183
PIGB | 0.389
CYLC2 | 0.662
PRKCI | 0.432
LRFN1 | 0.522
CNBP | 0.044
METTL2B | -0.404
PDSS2 | -0.241
AFDN | 0.271
NDUFA7 | -0.24
CYP24A1 | -0.388
CTTNBP2NL | 0.335
MKNK2 | 0.346
SDHAF2 | -0.401
BBS1 | -0.228
CTIF | -0.392
TMEM260 | -0.406
PREX1 | -0.66
NOP10 | -0.0316
TRIM26 | 0.594
MTX1 | -0.581
CD163 | -0.743
KCNH6 | -0.516
EBLN2 | -0.171
SRPX | -0.307
MLX | -0.344
TLR2 | 0.32
DENND4B | -0.148
PIGO | -0.125
PI4KA | 0.804
OPTN | -0.163
SIN3B | -0.563
ZNF492 | -0.29
HMGCS2 | 0.0705
TNFSF9 | 0.403
CELSR1 | 0.738
POMP | -0.23
PCDHGB4 | 0.675
ISOC1 | 0.172
HSH2D | 0.797
FUT7 | -0.677
ME1 | 0.554
TMEM257 (retired record) | -0.401
